Results are given in words; binding and its absence hold for the method and conditions named. Tags and fused reporters may be left off the sequences shown.
Biological target: T1, GST-TRN-SR2 (transportin-SR2) (UniProt Q9Y5L0)
T1 sequence: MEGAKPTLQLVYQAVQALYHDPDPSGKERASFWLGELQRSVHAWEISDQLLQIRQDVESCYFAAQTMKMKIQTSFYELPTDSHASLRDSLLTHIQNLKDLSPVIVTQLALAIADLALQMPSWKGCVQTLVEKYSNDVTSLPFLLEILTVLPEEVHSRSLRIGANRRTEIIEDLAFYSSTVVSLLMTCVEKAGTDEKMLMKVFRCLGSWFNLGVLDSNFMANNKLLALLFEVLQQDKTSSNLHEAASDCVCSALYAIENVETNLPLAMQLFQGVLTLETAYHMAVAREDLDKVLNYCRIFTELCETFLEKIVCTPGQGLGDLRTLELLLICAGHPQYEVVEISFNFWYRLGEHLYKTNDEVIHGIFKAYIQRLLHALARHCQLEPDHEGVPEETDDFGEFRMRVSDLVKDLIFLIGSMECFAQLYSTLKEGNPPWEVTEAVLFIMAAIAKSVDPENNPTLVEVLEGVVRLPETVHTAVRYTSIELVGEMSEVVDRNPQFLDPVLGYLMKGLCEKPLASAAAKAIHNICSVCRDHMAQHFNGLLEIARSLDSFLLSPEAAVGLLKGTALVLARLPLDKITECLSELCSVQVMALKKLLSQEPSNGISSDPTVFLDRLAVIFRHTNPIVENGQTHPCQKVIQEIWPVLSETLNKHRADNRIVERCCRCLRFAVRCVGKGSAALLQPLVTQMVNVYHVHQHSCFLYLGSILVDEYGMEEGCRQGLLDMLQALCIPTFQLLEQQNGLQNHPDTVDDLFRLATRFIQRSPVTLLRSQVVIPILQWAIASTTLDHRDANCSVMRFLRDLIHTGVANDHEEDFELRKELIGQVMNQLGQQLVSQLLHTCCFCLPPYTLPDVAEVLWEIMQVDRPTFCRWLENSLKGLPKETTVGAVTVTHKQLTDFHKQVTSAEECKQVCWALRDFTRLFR
Assay: AlphaScreen or HTRF; 10 nM GST-TRN-SR2 titrated with 1 to 150 nM His6-tagged protein; glutathione donor and nickel-chelate acceptor beads; 25 mM Tris/HCl pH 7.4, 150 mM NaCl, 1 mM MgCl2, 0.1% Tween-20, 0.1% BSA; 1 h at 4°C, then 1.5 h at room temperature with beads; apparent Kd; both purified

Protein sequences, listed by entry. Tags and fused reporters are not part of them.
UniProt P09471: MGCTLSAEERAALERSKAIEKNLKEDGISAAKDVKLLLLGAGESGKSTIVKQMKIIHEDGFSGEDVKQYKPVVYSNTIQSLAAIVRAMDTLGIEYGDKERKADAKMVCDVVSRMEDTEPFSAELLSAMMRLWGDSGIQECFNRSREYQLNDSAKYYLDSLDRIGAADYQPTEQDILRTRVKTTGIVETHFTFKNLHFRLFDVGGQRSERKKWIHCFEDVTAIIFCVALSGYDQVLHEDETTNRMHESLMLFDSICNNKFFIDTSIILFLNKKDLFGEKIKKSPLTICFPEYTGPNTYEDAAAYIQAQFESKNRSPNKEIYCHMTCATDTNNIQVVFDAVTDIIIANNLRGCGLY

binding: no binding (tested: 1 to 150 nM)
Substance: His6-tagged human heterotrimeric G protein α oA subunit (from UniProt P09471 1-354)

Reference: PMC3041740, “Interplay between HIV Entry and Transportin-SR2 Dependency” (Retrovirology, 2011)
